The text below walks through data of paper PMC8302610.

By UniProt entry, the sequences of proteins in these tests, tags left out.
UniProt Q9UBN7: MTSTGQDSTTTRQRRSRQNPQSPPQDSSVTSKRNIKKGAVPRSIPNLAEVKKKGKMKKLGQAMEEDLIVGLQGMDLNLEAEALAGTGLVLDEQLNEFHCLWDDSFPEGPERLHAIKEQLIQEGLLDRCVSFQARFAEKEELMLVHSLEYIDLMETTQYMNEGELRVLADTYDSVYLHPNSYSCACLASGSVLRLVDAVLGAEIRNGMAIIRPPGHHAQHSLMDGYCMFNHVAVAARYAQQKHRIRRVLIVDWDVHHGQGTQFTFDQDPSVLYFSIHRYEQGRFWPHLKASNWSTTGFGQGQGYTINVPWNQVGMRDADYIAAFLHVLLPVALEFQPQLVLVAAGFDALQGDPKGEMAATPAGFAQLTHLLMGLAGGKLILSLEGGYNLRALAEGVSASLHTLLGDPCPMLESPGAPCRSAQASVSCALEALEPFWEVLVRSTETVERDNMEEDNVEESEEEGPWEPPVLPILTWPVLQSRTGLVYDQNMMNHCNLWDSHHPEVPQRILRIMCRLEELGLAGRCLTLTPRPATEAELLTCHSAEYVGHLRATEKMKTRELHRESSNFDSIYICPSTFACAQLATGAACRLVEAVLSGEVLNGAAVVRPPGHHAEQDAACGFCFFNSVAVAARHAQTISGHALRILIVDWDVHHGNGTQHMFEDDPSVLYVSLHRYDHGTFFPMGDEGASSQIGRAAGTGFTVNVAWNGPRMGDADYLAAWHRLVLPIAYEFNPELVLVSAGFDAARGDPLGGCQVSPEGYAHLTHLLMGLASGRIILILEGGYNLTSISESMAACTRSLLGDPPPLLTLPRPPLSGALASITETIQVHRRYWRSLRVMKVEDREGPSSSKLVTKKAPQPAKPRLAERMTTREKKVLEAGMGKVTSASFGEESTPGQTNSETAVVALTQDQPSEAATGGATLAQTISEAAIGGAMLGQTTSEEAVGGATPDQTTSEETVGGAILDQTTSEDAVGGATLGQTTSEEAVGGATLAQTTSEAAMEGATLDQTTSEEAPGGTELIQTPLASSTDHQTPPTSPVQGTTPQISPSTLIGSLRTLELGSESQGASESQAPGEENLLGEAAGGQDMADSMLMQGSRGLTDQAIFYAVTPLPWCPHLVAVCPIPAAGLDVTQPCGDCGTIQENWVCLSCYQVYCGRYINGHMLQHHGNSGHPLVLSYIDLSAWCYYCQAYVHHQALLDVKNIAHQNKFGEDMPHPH
UniProt Q96RD7: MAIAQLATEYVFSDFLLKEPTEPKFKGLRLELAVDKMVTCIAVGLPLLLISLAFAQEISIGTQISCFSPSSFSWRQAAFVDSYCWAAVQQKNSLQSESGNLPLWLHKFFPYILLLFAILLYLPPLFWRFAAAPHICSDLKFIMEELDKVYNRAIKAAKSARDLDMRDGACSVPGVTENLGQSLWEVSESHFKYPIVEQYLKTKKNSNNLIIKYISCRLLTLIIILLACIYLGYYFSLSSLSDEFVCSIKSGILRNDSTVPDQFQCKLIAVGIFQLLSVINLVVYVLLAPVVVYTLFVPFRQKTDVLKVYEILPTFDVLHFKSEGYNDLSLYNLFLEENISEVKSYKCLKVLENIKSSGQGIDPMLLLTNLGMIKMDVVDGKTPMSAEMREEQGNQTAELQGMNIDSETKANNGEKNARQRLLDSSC

Results are given in words; binding and its absence hold for the method and conditions named. Binding seen in cells or lysates may run through a third protein. Some entries that bind do so weakly or less than the wild type.

For this assay, the target named is FLAG-tagged HDAC6 (histone deacetylase 6) (UniProt Q9UBN7). Description: co-IP; FLAG-tagged HDAC6 and Strep-tagged PANX1 co-expressed in HEK293T cells (~24 h); lysis in PBS with 1% Triton X-100, protease inhibitors, 10 mM NaF, 10 mM NaVO3; HDAC6-FLAG precipitated with anti-FLAG M2 agarose; PANX1 detected by immunoblot with an anti-Panx1 antibody.

On to “Strep-tagged human Pannexin 1 (hPANX1-Strep) (from UniProt Q96RD7 1-426)”, for which the binding entry is “binds”.
